Patent US11912777
Results are given in words; binding and its absence hold for the method and conditions named. Some results given as binding are weak or reduced against the parent protein; the word gives no strength.

Experiments:
[1] = molecular target: Cynomolgus TNFR2, human Fc tag protein (cynomolgus); assay: ELISA, TNFR2-huFc coated (figure legend)
[2] = molecular target: Human TNFR2, human Fc tag protein (human); assay: ELISA, TNFR2-huFc coated (figure legend)
[3] = molecular target: human TNFR2, mouse Fc-tag (human); assay: ELISA on coated human TNFR2-mFc; left panel [a]
[4] = molecular target: human TNFR2, mouse Fc-tag (human); assay: ELISA on coated human TNFR2-mFc; left panel [b]
[5] = molecular target: human TNFR2, mouse Fc-tag (human); assay: blocking ELISA: hTNFR2-mFc binding to coated TNF-alpha his tag; right panel [b]
[6] = molecular target: human TNFR2, mouse Fc-tag (human); assay: blocking ELISA: hTNFR2-mFc binding to coated TNF-alpha his tag; right panel [a]
[7] = molecular target: Human TNFR2, human Fc tag protein (human); assay: ELISA on coated huTNFR2-huFc; middle panel
[8] = molecular target: Human TNFR2, human Fc tag protein (human); assay: ELISA on coated huTNFR2-huFc; top panel

B1: chimeric antibody 43B7A4 (antibody, human IgG1, kappa, V domains shown)
VH: QIQLVQSGPELKKPGETVKISCKASGYTFTTYGMSWVKQAPGKGLKWMGWIHTYSGVPTYADDFKGRFAFSLETSASTAFLQINNLKNEDTATYFCARGLYGVDYWGQGTTLTVSS
VL: NIVMTQSPKSMSMSVGERVTLSCKASENVVTYVSWYQQKPEQSPKLLIYGASNRYTGVPDRFTGSGSATDFTLTISSVQAEDLADYHCGQSYTYPYTFGGGTTLEIKR
- binding [1]: binds
- binding [2]: binds

B2: negative control IgG (antibody, V domains shown)
VH: QVQLVESGGGAVQPGRSLRLSCAASGFTFSSYGMHWVRQAPGKGLEWVAVILYDGSDKFYADSVKGRFTISRDNSKNTLYLQMNSLRAEDTAVYYCAKVAVAGTHFDYWGQGTLVTVSS
VL: DIQMTQSPSSLSASVGDRVTITCRASQGIRNDLGWYQQKPGKAPKLLIYAASSLQSGVPSRFSGSGSGTDFTLTISSLQPEDFATYYCQQLNSYPPTFGGGTKVEIKR
- binding [3]: no binding (tested: about 3 nM)
- binding [4]: no binding (tested: about 3 nM)
- binding [5]: no binding (tested: about 7 nM)
- binding [6]: no binding (tested: about 7 nM)
- binding [7]: no binding (tested: about 3 nM)
- binding [8]: no binding (tested: about 3 nM)
